Some of these results come from one statement about several compounds together.
Test system: anti-pentapeptide serum
Experiment: Competitive radioimmunoassay (RIA) with anti-pentapeptide serum
Format: binding

Row | Molecule | cross-reactivity of the antiserum | amount giving 50% displacement of the ^125I-Labelled pentapeptide
1 | NC(=O)[C@@H]1CCCN1C(=O)[C@H](Cc1cnc[nH]1)NC(=O)[C@@H]1CCC(=O)N1 [thyrotropin-releasing hormone, Glp-His-Pro] | less than 0.01% | –
2 | (Glp1)-His-Asn-Pro-Arg [[Glp^1] pentapeptide] | – | no more than 570 fmol
3 | QHNP (synthetic tetrapeptide) | less than 0.01% | –

Source: patent US7429448B2, “Therapeutic use of the SMR1 protein and active derivatives thereof” (Institut Pasteur, priority 1998, dated 2008)
